Values from PubChem BioAssay AID743454 (Peter MacCallum Cancer Centre, 2014).
The whole screen tested about 18,000 reagents; shown is an unselected part. In the full data, 450 (2.5%) were called active. 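Single biological run; no consistent viability z cut-off exists, so the class columns, not z-scores, define the calls.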 A number with no mark means an inactive call.

Purpose: 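Knock-downs lowering viability or raising caspase 3/7 activity in vorinostat-treated resistant cells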 (primary screen)
Cell system: human HCT116-VR colon cancer cells, selected for vorinostat resistance
Reagent: siRNA pool against human genes, 40 nM siRNA pool
Timing: vorinostat for 24 h, read-out about 72 h after transfection
Treatment: vorinostat at 2.5 µM final
Measured: 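Cell viability by CellTiter-Fluor and caspase 3/7 activity by luminescence, each scaled to mock wells per plate, duplicates averaged, then robust z-scored over all plates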
Reading the numbers: viability robust z-score: higher = more viable cells than screen typical; caspase robust z-score: higher = more caspase 3/7 activity than screen typical
Rule for the call: 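a knock-down is a hit when classed RV1 or RV2 for lowered viability, or CA1 or CA2 for caspase activation; those lethal without drug were dropped; hits were retested singly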

no.	target gene	viability hit class	caspase hit class	viability robust z-score	caspase robust z-score
1	HINT1 (GeneID 3094)	no change	no change	-0.11	-0.49
2	LYG1 (GeneID 129530)	no change	no change	0.16	2
3	C8orf58 (GeneID 541565)	no change	no change	0.42	-0.52
4	OTUD7B (GeneID 56957)	no change	no change	-1.12	3.46
5	SLC20A2 (GeneID 6575)	no change	no change	-0.29	-0.55
6	SLC1A5 (GeneID 6510)	no change	no change	0.48	-0.86
7	DCTN6 (GeneID 10671)	no change	no change	-1.36	0.31
8	OXCT1 (GeneID 5019)	no change	no change	1.37	0.31
9	ATP11C (GeneID 286410)	no change	no change	0.3	-1.25
10	UGT2B11 (GeneID 10720)	no change	no change	0.34	1.34
11	GMPR (GeneID 2766)	no change	no change	2.06	0.3
12	H2AB1 (GeneID 474382)	no change	no change	1.32	-0.18
13	PIGB (GeneID 9488)	no change	no change	-0.51	0.49
14	KLHDC8B (GeneID 200942)	no change	no change	0.01	4.64
15	TP53I11 (GeneID 9537)	no change	no change	0.4	2.44
16	LLGL1 (GeneID 3996)	no change	no change	1.07	-0.78
17	POLR2G (GeneID 5436)	no change (active)	CA2 (caspase activation)	-3	5.93
18	PYCR2 (GeneID 29920)	no change	no change	-2.01	0.34
19	ASB10 (GeneID 136371)	no change	no change	-0.07	-0.36
20	SART3 (GeneID 9733)	no change	no change	-0.48	-0.17
21	ZFP1 (GeneID 162239)	no change	no change	0.11	-1.27
22	CDCA3 (GeneID 83461)	no change	no change	-0.52	-0.4
23	ATP5ME (GeneID 521)	no change	no change	-0.52	0.84
24	DEFB106B (GeneID 503841)	no change	no change	0.42	-0.18
25	STXBP2 (GeneID 6813)	no change	no change	-0.4	0.59
26	KLHL18 (GeneID 23276)	no change	no change	0.56	-1.22
27	EPB41 (GeneID 2035)	no change	no change	0.16	-0.49
28	SMPD2 (GeneID 6610)	no change	no change	0.46	2.48
29	GPR135 (GeneID 64582)	no change	no change	1.78	0
30	COX6B2 (GeneID 125965)	no change	no change	0.22	-0.88
31	KHDRBS2 (GeneID 202559)	no change	no change	-0.26	0.55
32	NFE2 (GeneID 4778)	no change	no change	0.72	0.62
33	MMUT (GeneID 4594)	no change	no change	0.62	-0.93
34	ABHD11 (GeneID 83451)	no change	no change	2.02	1.86
35	GALNT13 (GeneID 114805)	no change	no change	-0.03	1.94
36	MYG1 (GeneID 60314)	no change	no change	-4.28	3.27
37	KISS1R (GeneID 84634)	no change	no change	0.61	1.58
38	TTC14 (GeneID 151613)	no change	no change	-0.73	-1.25
39	CYP2D6 (GeneID 1565)	no change	no change	-1.91	1.79

Entries listed so far whose gene name starts with S or s:
target gene	viability hit class	caspase hit class	viability robust z-score	caspase robust z-score
SLC20A2 (GeneID 6575)	no change	no change	-0.29	-0.55
SLC1A5 (GeneID 6510)	no change	no change	0.48	-0.86
SART3 (GeneID 9733)	no change	no change	-0.48	-0.17
STXBP2 (GeneID 6813)	no change	no change	-0.4	0.59
SMPD2 (GeneID 6610)	no change	no change	0.46	2.48
